# Values of other authors as cited in patent US6686458B2, “Synthetic molecules that specifically react with target sequences” (The Regents of the University of California, priority 1997, dated 2004).
# At least one structure is not confirmed: it was looked up by name or label, or the drawing left a doubt.
# System: target sequence (SEQ ID NO. 1)
# Settings: fluorescein in 0.1 N NaOH, reference standard; cited from earlier work
compound,measurement,value
O=C1OC2(c3ccc(O)cc3Oc3cc(O)ccc32)c2ccccc21 [fluorescein],quantum yield of fluorescein,0.9
